This assay concerns the target GFP-tagged MICAL2 (human) (UniProt O94851). Put plainly: co-IP; GFP-Trap agarose bead pulldown from lysates of HeLa cells stably expressing the GFP-tagged bait; cells treated with 200 nM Latrunculin A for 1 h; lysis buffer 50 mM Hepes pH 7.5, 150 mM NaCl, 1.5 mM MgCl2, 1 mM EGTA, 1% Triton X-100, 10% glycerol, 200 nM Latrunculin A; read by immunoblot. For orientation: In western blotting, separated proteins are transferred to a membrane and probed.

Sequences of proteins named here, by UniProt entry; tags and fusion partners are left off. A change or cut given only in a name is not applied to a line headed by its entry.
UniProt O94851: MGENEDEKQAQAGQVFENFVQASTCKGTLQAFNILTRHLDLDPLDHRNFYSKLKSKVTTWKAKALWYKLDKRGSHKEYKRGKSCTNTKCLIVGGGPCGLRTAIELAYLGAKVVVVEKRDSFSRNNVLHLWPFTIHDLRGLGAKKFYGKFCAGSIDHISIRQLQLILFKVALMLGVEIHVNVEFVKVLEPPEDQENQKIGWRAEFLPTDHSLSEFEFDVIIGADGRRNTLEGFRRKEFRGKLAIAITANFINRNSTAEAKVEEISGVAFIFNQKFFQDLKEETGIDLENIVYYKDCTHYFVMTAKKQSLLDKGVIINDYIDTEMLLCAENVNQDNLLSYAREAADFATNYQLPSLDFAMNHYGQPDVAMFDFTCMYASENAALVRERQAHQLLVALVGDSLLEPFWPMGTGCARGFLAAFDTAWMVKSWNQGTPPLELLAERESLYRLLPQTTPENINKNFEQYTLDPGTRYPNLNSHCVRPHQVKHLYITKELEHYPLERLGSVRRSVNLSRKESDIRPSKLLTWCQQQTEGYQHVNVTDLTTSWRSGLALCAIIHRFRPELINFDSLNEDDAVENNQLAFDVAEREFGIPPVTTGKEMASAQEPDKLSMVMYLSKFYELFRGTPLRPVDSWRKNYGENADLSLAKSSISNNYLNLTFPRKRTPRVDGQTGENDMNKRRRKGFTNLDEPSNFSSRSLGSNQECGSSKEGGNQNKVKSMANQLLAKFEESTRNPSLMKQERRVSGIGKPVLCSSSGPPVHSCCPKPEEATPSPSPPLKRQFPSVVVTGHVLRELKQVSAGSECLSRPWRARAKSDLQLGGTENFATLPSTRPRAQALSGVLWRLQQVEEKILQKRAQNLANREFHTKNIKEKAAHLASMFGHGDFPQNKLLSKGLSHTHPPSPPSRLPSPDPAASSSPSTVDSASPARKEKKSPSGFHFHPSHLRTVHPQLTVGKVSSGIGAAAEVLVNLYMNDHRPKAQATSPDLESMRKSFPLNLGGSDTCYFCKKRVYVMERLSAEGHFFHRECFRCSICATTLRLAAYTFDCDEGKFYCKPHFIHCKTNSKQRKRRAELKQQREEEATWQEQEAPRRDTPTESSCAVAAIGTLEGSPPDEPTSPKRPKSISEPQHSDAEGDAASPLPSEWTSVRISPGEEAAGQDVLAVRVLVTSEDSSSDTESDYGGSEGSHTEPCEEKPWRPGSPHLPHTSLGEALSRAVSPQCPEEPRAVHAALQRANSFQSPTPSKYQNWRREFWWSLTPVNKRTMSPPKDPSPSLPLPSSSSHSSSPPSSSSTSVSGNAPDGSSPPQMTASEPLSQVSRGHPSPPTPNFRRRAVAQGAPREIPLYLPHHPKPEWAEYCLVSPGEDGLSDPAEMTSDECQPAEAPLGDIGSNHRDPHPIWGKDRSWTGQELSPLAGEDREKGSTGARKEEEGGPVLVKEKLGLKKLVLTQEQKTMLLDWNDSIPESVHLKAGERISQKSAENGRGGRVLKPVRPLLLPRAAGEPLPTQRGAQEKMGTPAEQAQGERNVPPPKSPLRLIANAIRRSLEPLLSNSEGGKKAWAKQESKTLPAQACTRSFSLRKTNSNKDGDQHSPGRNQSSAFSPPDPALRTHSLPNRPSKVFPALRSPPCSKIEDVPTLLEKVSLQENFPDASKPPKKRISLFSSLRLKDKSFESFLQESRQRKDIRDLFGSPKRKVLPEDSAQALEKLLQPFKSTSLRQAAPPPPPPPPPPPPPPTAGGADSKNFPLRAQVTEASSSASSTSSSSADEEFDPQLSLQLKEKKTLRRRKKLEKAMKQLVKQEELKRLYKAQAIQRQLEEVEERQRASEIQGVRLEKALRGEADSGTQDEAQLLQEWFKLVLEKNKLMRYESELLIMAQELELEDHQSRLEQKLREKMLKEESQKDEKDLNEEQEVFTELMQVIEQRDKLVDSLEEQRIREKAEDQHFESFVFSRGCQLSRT
UniProt Q9ULV4: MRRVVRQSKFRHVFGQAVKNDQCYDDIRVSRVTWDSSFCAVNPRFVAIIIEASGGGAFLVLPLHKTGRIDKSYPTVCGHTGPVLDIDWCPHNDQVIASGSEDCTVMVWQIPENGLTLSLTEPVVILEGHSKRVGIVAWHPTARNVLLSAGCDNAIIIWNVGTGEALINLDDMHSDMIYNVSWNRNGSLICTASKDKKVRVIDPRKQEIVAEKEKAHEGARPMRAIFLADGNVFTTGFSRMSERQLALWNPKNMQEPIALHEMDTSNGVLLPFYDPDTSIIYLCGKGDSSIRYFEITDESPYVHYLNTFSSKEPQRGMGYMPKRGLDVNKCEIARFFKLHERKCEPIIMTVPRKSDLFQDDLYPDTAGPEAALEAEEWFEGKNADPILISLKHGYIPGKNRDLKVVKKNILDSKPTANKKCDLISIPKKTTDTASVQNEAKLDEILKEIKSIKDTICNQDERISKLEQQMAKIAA

These are yes or no findings as the source states them, for the method shown. In cells and extracts the contact can be indirect. Binding can be weak; no strength is given.

“coronin 1C (endogenous) (from UniProt Q9ULV4 1-474)”: the binding result is recorded as “binds”.

These data come from paper PMC8193582.
